Measurements reported in PubChem BioAssay AID1259308 (NCATS, 2017)
Aim: 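Knock-downs that increase output of a recombinant reporter protein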 (primary screen). System: human HEK293 embryonic kidney cells stably expressing firefly luciferase (HEK-CMV-Luc2-Hygro). Knock-down reagent: single siRNA against human genes, 0.8 pmol siRNA per well. Timing: 72 h. Measured: 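Reporter luminescence and viable-cell signal on separate replicate plates, given as percent of non-targeting control and median/MAD z-scores, plus per-cell luciferase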. Direction: total luciferase, z-score: higher = more reporter protein produced. Active means: 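An siRNA counts as active if its total luciferase robust z-score exceeds 3; genes with two or more such siRNAs out of three were retested with fresh siRNAs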. Calls: active = raised luciferase; inactive = no rise.
The whole screen tested about 59,000 reagents; shown is a part drawn at random. About 1,510 of them (2.6%) count as active. 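Calls use total luciferase alone and ignore viability, so some active siRNAs may act by altering cell number.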 Reagents against one gene are numbered here. Further read-outs or replicates are left out here.

| gene knocked down | siRNA no. | total luciferase, z-score | activity call |
| --- | --- | --- | --- |
| NAALAD2 | 1 | 1.35 | inactive |
| NAALAD2 | 2 | 0.37 | inactive |
| NAALAD2 | 3 | 1.51 | inactive |
| MRAP2 | 1 | 0.297 | inactive |
| MRAP2 | 2 | 0.086 | inactive |
| MRAP2 | 3 | 0.101 | inactive |
| CHRNA4 | 1 | 0.762 | inactive |
| CHRNA4 | 2 | 0.184 | inactive |
| CHRNA4 | 3 | 0.202 | inactive |
| TMEM45B | 1 | 4.59 | active |
| TMEM45B | 2 | 2.02 | inactive |
| TMEM45B | 3 | -1.24 | inactive |
| OR7G2 | 1 | 1.02 | inactive |
| OR7G2 | 2 | -0.477 | inactive |
| OR7G2 | 3 | 0.781 | inactive |
| RASD2 | 1 | -0.497 | inactive |
| RASD2 | 2 | 0.256 | inactive |
| RASD2 | 3 | 0.822 | inactive |
| ITGA3 | 1 | 0.0478 | inactive |
| ITGA3 | 2 | 1.2 | inactive |
| ITGA3 | 3 | -0.58 | inactive |
| PTK2 | 1 | -0.822 | inactive |
| PTK2 | 2 | 0.568 | inactive |
| PTK2 | 3 | -0.768 | inactive |
| ARL4A | 1 | -0.817 | inactive |
| ARL4A | 2 | 2.78 | inactive |
| ARL4A | 3 | -0.622 | inactive |
| KCNH8 | 1 | 1.41 | inactive |
| KCNH8 | 2 | -0.0355 | inactive |
| KCNH8 | 3 | -1.93 | inactive |
| FRAS1 | 1 | -0.178 | inactive |
| FRAS1 | 2 | -1.63 | inactive |
| FRAS1 | 3 | 0.257 | inactive |
| GSE1 | 1 | -0.258 | inactive |
| GSE1 | 2 | -0.299 | inactive |
| GSE1 | 3 | -1.09 | inactive |
| RFXAP | 1 | -0.643 | inactive |
| RFXAP | 2 | -0.691 | inactive |
| RFXAP | 3 | 0.666 | inactive |
| PRF1 | 1 | 0.764 | inactive |
| PRF1 | 2 | -0.574 | inactive |
| PRF1 | 3 | 3.41 | active |
| LOC150935 | 1 | -1.46 | inactive |
| LOC150935 | 2 | 0.387 | inactive |
| LOC150935 | 3 | 1.5 | inactive |
| ABCC11 | 1 | 0.219 | inactive |
| ABCC11 | 2 | -0.0348 | inactive |
| ABCC11 | 3 | -0.49 | inactive |
| RSAD2 | 1 | 2.61 | inactive |
| RSAD2 | 2 | -0.711 | inactive |
| RSAD2 | 3 | 0.166 | inactive |
| ANKDD1A | 1 | -0.605 | inactive |
| ANKDD1A | 2 | 0.751 | inactive |
| ANKDD1A | 3 | 1.61 | inactive |
| ICE2P2 | 1 | 0.659 | inactive |
| ICE2P2 | 2 | -0.645 | inactive |
| ICE2P2 | 3 | -0.635 | inactive |

Hits (from the list above):
| gene knocked down | siRNA no. | total luciferase, z-score | activity call |
| --- | --- | --- | --- |
| TMEM45B | 1 | 4.59 | active |
| PRF1 | 3 | 3.41 | active |
